PubChem BioAssay AID1224826 | NIAID | 2016
In all, the deposit lists about 17,000 reagents; this is a part drawn at random. About 1,110 of all reagents (6.6%) count as active. 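Active means lowered or raised reporter signal; replicate intensities are raw and not normalised per plate.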 A number with no mark means an inactive call.

Test: 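Knock-downs that raise or lower Tnf reporter signal after endotoxin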 (primary screen)
System: RAW264.7 G9 macrophages from mouse bearing reporters for p65 (GFP) and the Tnf promoter (mCherry)
Reagents: siRNA pool against mouse genes, 100 nM
Duration: 16 h of LPS stimulation, after 2 days of siRNA transfection
Conditions: bacterial lipopolysaccharide (Salmonella minnesota R595), 10 ng/ml
Measured: 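Nuclear mCherry signal of the Tnf promoter reporter measured by imaging after background removal, scaled to each plate median and turned into robust z-scores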
Scale: Tnf reporter robust z-score: higher = stronger Tnf promoter reporter signal after LPS; Tnf reporter intensity: higher = stronger Tnf promoter reporter signal
Active means: 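a well counts as active at a score of -1.3 or below (Tlr4 knock-down control median) or above 3 (raised signal); controls and wells holding fewer than 50 cells are excluded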
Meaning of the calls: active = Tnf reporter clearly lowered or raised; inactive = no clear change in Tnf reporter

| target | PubChem SID | Tnf reporter robust z-score | fewer than 50 cells in well | Tnf reporter intensity, replicate 1 | Tnf reporter intensity, replicate 2 |
| --- | --- | --- | --- | --- | --- |
| Eci1 (enoyl-Coenzyme A delta isomerase 1) | SID315466276 | -0.19 | enough cells in well | 199 | 233 |
| Rgs2 (regulator of G-protein signaling 2) | SID315468968 | -0.82 | enough cells in well | 223 | 52.7 |
| Teddm1a (transmembrane epididymal protein 1A) | SID315479527 | 2.34 | enough cells in well | 449 | 240 |
| Npepps (aminopeptidase puromycin sensitive) | SID315468729 | -0.6 | enough cells in well | 179 | 168 |
| Kifbp (kinesin family binding protein) | SID315474518 | -0.09 | enough cells in well | 189 | 84.4 |
| LOC269472 (retired record) | SID315480858 | -1.39 (active) | enough cells in well | 116 | 103 |
| Slc32a1 | SID315470000 | 1.33 | enough cells in well | 168 | 133 |
| Bmp10 (bone morphogenetic protein 10) | SID315465647 | 2.64 | enough cells in well | 235 | 272 |
| Magi2 | SID315470853 | -0.99 | enough cells in well | 116 | 108 |
| Pcdha6 (protocadherin alpha 6) | SID315466126 | -0.14 | enough cells in well | 153 | 114 |
| Cdc6 (cell division cycle 6) | SID315470193 | 0.71 | enough cells in well | 301 | 262 |
| Nip7 (NIP7, nucleolar pre-rRNA processing protein) | SID315472257 | 1.66 | enough cells in well | 362 | 134 |
| Ubqln3 (ubiquilin 3) | SID315479737 | -0.32 | enough cells in well | 225 | 180 |
| Ext2 (exostosin glycosyltransferase 2) | SID315466590 | 0.51 | enough cells in well | 284 | 254 |
| Prrc2a (proline-rich coiled-coil 2A) | SID315471104 | 0 | enough cells in well | 219 | 192 |
| Nprl3 (nitrogen permease regulator-like 3) | SID315467830 | -0.35 | enough cells in well | 200 | 102 |
| Caprin1 (cell cycle associated protein 1) | SID315471118 | 1.91 | enough cells in well | 398 | 274 |
| Tmod2 (tropomodulin 2) | SID315470867 | -0.05 | enough cells in well | 108 | 98.2 |
| Tada3 (transcriptional adaptor 3) | SID315476268 | 1.22 | enough cells in well | 315 | 198 |
| Syt7 (synaptotagmin VII) | SID315471252 | -1.66 (active) | enough cells in well | 54.3 | 52.7 |
| Pde4c (phosphodiesterase 4C, cAMP specific) | SID315476903 | 0.04 | enough cells in well | 244 | 185 |
| Mettl14 (methyltransferase 14, N6-adenosine-methyltransferase subunit) | SID315477644 | -1.14 | enough cells in well | 176 | 68.5 |
| Selenbp1 (selenium binding protein 1) | SID315469166 | -0.57 | enough cells in well | 249 | 153 |
| Dis3l2 (DIS3 like 3'-5' exoribonuclease 2) | SID315477550 | -0.15 | enough cells in well | 206 | 60.2 |
| Klra22 (killer cell lectin-like receptor subfamily A, member 22) | SID315476014 | -0.17 | enough cells in well | 216 | 149 |
| Lhx2 (LIM homeobox protein 2) | SID315467747 | -0.78 | enough cells in well | 135 | 111 |
| Stox2 (storkhead box 2) | SID315474179 | 0.64 | enough cells in well | 178 | 81.8 |
| Snd1 (staphylococcal nuclease and tudor domain containing 1) | SID315471557 | 1.26 | enough cells in well | 337 | 225 |
| Mnt (max binding protein) | SID315467957 | 0.42 | enough cells in well | 253 | 274 |
| Vgll2 (vestigial like family member 2) | SID315477905 | -1.27 | enough cells in well | 58 | 59.2 |
| Plppr1 (phospholipid phosphatase related 1) | SID315480963 | 2.18 | enough cells in well | 328 | 198 |
| Asb3 (ankyrin repeat and SOCS box-containing 3) | SID315472157 | 0.84 | enough cells in well | 244 | 188 |
| Tcl1b5 (T cell leukemia/lymphoma 1B, 5) | SID315470595 | -1.26 | enough cells in well | 69.6 | 58.7 |
| Dhrs2 (dehydrogenase/reductase member 2) | SID315474233 | -0.11 | enough cells in well | 231 | 84.6 |
| Pla2g4b (phospholipase A2, group IVB (cytosolic)) | SID315477681 | -0.19 | enough cells in well | 205 | 202 |
| Or6b3 (olfactory receptor family 6 subfamily B member 3) | SID315480647 | -0.92 | enough cells in well | 135 | 75.9 |
| Cyp2c50 (cytochrome P450, family 2, subfamily c, polypeptide 50) | SID315476581 | 0.34 | enough cells in well | 277 | 210 |
| Zkscan14 (zinc finger with KRAB and SCAN domains 14) | SID315472917 | 0.78 | enough cells in well | 152 | 42 |
| Uros (uroporphyrinogen III synthase) | SID315469953 | 0.03 | enough cells in well | 249 | 211 |
| Wdr33 (WD repeat domain 33) | SID315474937 | 0.5 | enough cells in well | 319 | 86.4 |
| Zfp275 (zinc finger protein 275) | SID315470534 | 1.31 | enough cells in well | 182 | 177 |
| Khdc3 (KH domain containing 3, subcortical maternal complex member) | SID315472761 | – | fewer than 50 cells per well; well left out of calls | 318 | 107 |
| Pcdhga2 (protocadherin gamma subfamily A, 2) | SID315475942 | 0.6 | enough cells in well | 178 | 154 |
| Vmn1r49 (vomeronasal 1, receptor 49) | SID315470331 | -0.38 | enough cells in well | 101 | 80.2 |
| Dusp3 | SID315474525 | 0.12 | enough cells in well | 210 | 246 |
| Zfp959 (zinc finger protein 959) | SID315478384 | -0.51 | enough cells in well | 151 | 193 |
| Tnfrsf23 (tumor necrosis factor receptor superfamily, member 23) | SID315475665 | – | fewer than 50 cells per well; well left out of calls | 106 | 92.4 |
| Lcn8 (lipocalin 8) | SID315475535 | 2.98 | enough cells in well | 262 | 369 |
| Or5ak23 (olfactory receptor family 5 subfamily AK member 23) | SID315480109 | -0.67 | enough cells in well | 86.3 | 129 |
| Nek7 (NIMA (never in mitosis gene a)-related expressed kinase 7) | SID315471995 | -0.3 | enough cells in well | 166 | 154 |
| Kir3dl1 | SID315479829 | -0.77 | enough cells in well | 204 | 91.7 |
| Gtf2h3 (general transcription factor IIH, polypeptide 3) | SID315477591 | -0.5 | enough cells in well | 65.3 | 124 |
| Gmnn (geminin) | SID315471794 | -0.49 | enough cells in well | 203 | 152 |
| Cpt2 (carnitine palmitoyltransferase 2) | SID315466101 | 0.53 | enough cells in well | 267 | 250 |
| Tmem45a (transmembrane protein 45a) | SID315471427 | -0.86 | enough cells in well | 103 | 114 |
| Med23 (mediator complex subunit 23) | SID315473989 | -0.61 | enough cells in well | 200 | 148 |
| Mien1 (migration and invasion enhancer 1) | SID315476389 | -0.34 | enough cells in well | 129 | 58.5 |
| Or6c88 (olfactory receptor family 6 subfamily C member 88) | SID315480061 | – | fewer than 50 cells per well; well left out of calls | 102 | 43.8 |

An excerpt from above, limited to “Tnf reporter robust z-score”:
Pcdha6 (protocadherin alpha 6) [SID315466126]: -0.14
Cdc6 (cell division cycle 6) [SID315470193]: 0.71
Nip7 (NIP7, nucleolar pre-rRNA processing protein) [SID315472257]: 1.66
Ubqln3 (ubiquilin 3) [SID315479737]: -0.32
Ext2 (exostosin glycosyltransferase 2) [SID315466590]: 0.51
Prrc2a (proline-rich coiled-coil 2A) [SID315471104]: 0
Nprl3 (nitrogen permease regulator-like 3) [SID315467830]: -0.35
Caprin1 (cell cycle associated protein 1) [SID315471118]: 1.91
Tmod2 (tropomodulin 2) [SID315470867]: -0.05
